Source: patent publication US5672470A, “Microbial process for detection of toxic substances” (priority 1994, dated 1997)

System: bacteria phosphotransferase system (PTS) of E. coli mutant 1219bgl+
Format: cell-based
Source text: Since the phosphotransferase system for the bacterial cell is an essential transport system for the reception of extracellular carbohydrates, a possible inhibition or adverse effect of the participating enzymes should be noticed to cause a reduction in the carbohydrate transport, that is the PTS constitutes a potential possibility for the detection of toxic substances in microorganisms. […] Said analog is of such a nature that it, in phosphorylated form after the cell transport, can be hydrolyzed by an enzyme in the bacterial cell under the release of a substance susceptible to analysis. […] The released 2-nitrophenyl can then, by means of photometry, be quantitatively measured as phenolate-anion after a defined time span. […]
The E. coli cultures of the mutant 1219 bgl+, preserved at -20° C., are first thawed to be reactivated during 10 min. at room temperature. […] After a 2 minute centrifugation at 17,000×g the substrate transformations of the tested bacteria suspensions are photometrically determined at 405 nm.
The evaluation of the PTS test with ONP-glycosides is done by means of the toxicological characteristic quantity of the "efficient concentration", (the EC value). […] The percentage of adverse effect of the parameter to be measured is indicated by the attached index. […]

Structure (SMILES) | factor by which test is more sensitive in HEPES buffer instead of phosphate buffer (inhibition through supply of the metal ion) | factor by which EC10 is below the corresponding value for chloroform (EC10 in ppm, phosphate buffer pH 6.5)
[Hg+2] [Hg^2+] | 50 | –
Cc1ccccc1 [Toluene, toluene] | – | ~50
